# Assay results

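Malaria parasite (P. falciparum) lines kept in red blood cells; parasite DNA is measured by SYBR Green fluorescence after lysis, 72 h after compound addition.
Each compound was titrated across a series from about 0.000037 to 29 µM.
The number is the fitted AC50, the concentration giving a half-maximal change in signal; a lower value means higher potency, whether the curve shows a decrease or an increase.
Calls follow the curve class and fit quality: every row here is inconclusive, covering signal-raising curves and weak, poorly fitted, partial or highest-dose-only inhibition curves.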

Values are in µM.
Every entry below has the call inconclusive.
These entries are mostly ones the record files as inconclusive; other results of the assay are not listed here.
Potencies fitted to partial, single-point or poorly fitting curves are rough.
Some entries filed as inconclusive have a full curve.

| # | SMILES | condition | potency (µM) | curve as filed |
|---|---|---|---|---|
| 1 | `CCN1C[C@]2(COC)[C@H](O)C[C@H](OC)[C@]34C1C([C@H](OC)[C@H]23)[C@]1(OC(C)=O)C2[C@@H](OC(=O)c3ccccc3)C(O)(C[C@H]24)[C@@H](OC)[C@@H]1O` | GB4 | 12 | inhibitor, partial curve, poor fit |
| 2 | `CCN1C[C@]2(COC)[C@H](O)C[C@H](OC)[C@]34C1C([C@H](OC)[C@H]23)[C@]1(OC(C)=O)C2[C@@H](OC(=O)c3ccccc3)C(O)(C[C@H]24)[C@@H](OC)[C@@H]1O` | ICS | 12.59 | inhibitor, partial curve, poor fit |
| 3 | `CCN1C[C@]2(COC)[C@H](O)C[C@H](OC)[C@]34C1C([C@H](OC)[C@H]23)[C@]1(OC(C)=O)C2[C@@H](OC(=O)c3ccccc3)C(O)(C[C@H]24)[C@@H](OC)[C@@H]1O` | DIV17 | 16.94 | inhibitor, single point |
| 4 | `C[C@@](Cc1ccccc1)(NC(=O)CN)c1ccccc1` | AS120 | 10 | inhibitor, single point |
| 5 | `C[C@@](Cc1ccccc1)(NC(=O)CN)c1ccccc1` | CP203 | 16.94 | inhibitor, single point |
| 6 | `C[C@@](Cc1ccccc1)(NC(=O)CN)c1ccccc1` | ATS95 | 10 | inhibitor, single point |
| 7 | `C[C@@](Cc1ccccc1)(NC(=O)CN)c1ccccc1` | TAB165 | 10 | inhibitor, partial curve |
| 8 | `C[C@@](Cc1ccccc1)(NC(=O)CN)c1ccccc1` | CP215 | 8.492 | inhibitor, partial curve, poor fit |
| 9 | `C[C@@](Cc1ccccc1)(NC(=O)CN)c1ccccc1` | CP325 | 12 | inhibitor, partial curve, poor fit |
| 10 | `C[C@@](Cc1ccccc1)(NC(=O)CN)c1ccccc1` | CP201 | 10.69 | inhibitor, partial curve, poor fit |
| 11 | `C[C@@](Cc1ccccc1)(NC(=O)CN)c1ccccc1` | P93_24 | 11.22 | inhibitor, single point |
| 12 | `C[C@@](Cc1ccccc1)(NC(=O)CN)c1ccccc1` | ICS | 3.162 | inhibitor, full curve |
| 13 | `C[C@@](Cc1ccccc1)(NC(=O)CN)c1ccccc1` | ATS189 | 8.912 | inhibitor, single point |
| 14 | `C[C@@](Cc1ccccc1)(NC(=O)CN)c1ccccc1` | SC27B | 11.22 | inhibitor, partial curve |
| 15 | `C[C@@](Cc1ccccc1)(NC(=O)CN)c1ccccc1` | N140 | 11.22 | inhibitor, single point |
| 16 | `C[C@@](Cc1ccccc1)(NC(=O)CN)c1ccccc1` | CP238 | 11.22 | inhibitor, single point |
| 17 | `C[C@@](Cc1ccccc1)(NC(=O)CN)c1ccccc1` | PC15 | 5.012 | inhibitor, partial curve |
| 18 | `C[C@@](Cc1ccccc1)(NC(=O)CN)c1ccccc1` | CP286 | 10 | inhibitor, single point |
| 19 | `C[C@@](Cc1ccccc1)(NC(=O)CN)c1ccccc1` | CP252 | 8.912 | inhibitor, single point |
| 20 | `C[C@@](Cc1ccccc1)(NC(=O)CN)c1ccccc1` | CP185 | 7.08 | inhibitor, partial curve |
| 21 | `C[C@@](Cc1ccccc1)(NC(=O)CN)c1ccccc1` | 7G8 | 2.512 | inhibitor, partial curve |
| 22 | `C[C@@](Cc1ccccc1)(NC(=O)CN)c1ccccc1` | AA1029 | 12.59 | inhibitor, partial curve |
| 23 | `C[C@@](Cc1ccccc1)(NC(=O)CN)c1ccccc1` | CP305 | 7.569 | inhibitor, partial curve |
| 24 | `C[C@@](Cc1ccccc1)(NC(=O)CN)c1ccccc1` | CP211 | 9.528 | inhibitor, partial curve |
| 25 | `C[C@@](Cc1ccccc1)(NC(=O)CN)c1ccccc1` | DIV30 | 7.569 | inhibitor, partial curve |
| 26 | `C/C1=C2N=C(/C=C3N=C(/C(C)=C4\[N-]C(C)(C5N=C1C(C)(CCC(=O)NCC(C)OP(=O)([O-])O[C@H]1C(O)C(n6cnc7cc(C)c(C)cc76)O[C@@H]1CO)C5CC(N)=O)C(C)(CC(N)=O)C4CCC(N)=O)C(C)(CC(N)=O)C\3CCC(N)=O)C(C)(C)C/2CCC(N)=O.[CH2-]C1OC(n2cnc3c(N)ncnc32)C(O)C1O.[Co]` (some centres undefined) | CP211 | 13.46 | inhibitor, partial curve, poor fit |
| 27 | `C/C1=C2N=C(/C=C3N=C(/C(C)=C4\[N-]C(C)(C5N=C1C(C)(CCC(=O)NCC(C)OP(=O)([O-])O[C@H]1C(O)C(n6cnc7cc(C)c(C)cc76)O[C@@H]1CO)C5CC(N)=O)C(C)(CC(N)=O)C4CCC(N)=O)C(C)(CC(N)=O)C\3CCC(N)=O)C(C)(C)C/2CCC(N)=O.[CH2-]C1OC(n2cnc3c(N)ncnc32)C(O)C1O.[Co]` (some centres undefined) | W2 | 4.256 | inhibitor, full curve |
| 28 | `C/C1=C2N=C(/C=C3N=C(/C(C)=C4\[N-]C(C)(C5N=C1C(C)(CCC(=O)NCC(C)OP(=O)([O-])O[C@H]1C(O)C(n6cnc7cc(C)c(C)cc76)O[C@@H]1CO)C5CC(N)=O)C(C)(CC(N)=O)C4CCC(N)=O)C(C)(CC(N)=O)C\3CCC(N)=O)C(C)(C)C/2CCC(N)=O.[CH2-]C1OC(n2cnc3c(N)ncnc32)C(O)C1O.[Co]` (some centres undefined) | ICS | 11.22 | inhibitor, single point |

The last 3 entries again:

{"smiles": "C/C1=C2N=C(/C=C3N=C(/C(C)=C4\\[N-]C(C)(C5N=C1C(C)(CCC(=O)NCC(C)OP(=O)([O-])O[C@H]1C(O)C(n6cnc7cc(C)c(C)cc76)O[C@@H]1CO)C5CC(N)=O)C(C)(CC(N)=O)C4CCC(N)=O)C(C)(CC(N)=O)C\\3CCC(N)=O)C(C)(C)C/2CCC(N)=O.[CH2-]C1OC(n2cnc3c(N)ncnc32)C(O)C1O.[Co]", "stereo": "some centres undefined", "condition": "CP211", "potency (µM)": "13.46", "curve as filed": "inhibitor, partial curve, poor fit"}
{"smiles": "C/C1=C2N=C(/C=C3N=C(/C(C)=C4\\[N-]C(C)(C5N=C1C(C)(CCC(=O)NCC(C)OP(=O)([O-])O[C@H]1C(O)C(n6cnc7cc(C)c(C)cc76)O[C@@H]1CO)C5CC(N)=O)C(C)(CC(N)=O)C4CCC(N)=O)C(C)(CC(N)=O)C\\3CCC(N)=O)C(C)(C)C/2CCC(N)=O.[CH2-]C1OC(n2cnc3c(N)ncnc32)C(O)C1O.[Co]", "stereo": "some centres undefined", "condition": "W2", "potency (µM)": "4.256", "curve as filed": "inhibitor, full curve"}
{"smiles": "C/C1=C2N=C(/C=C3N=C(/C(C)=C4\\[N-]C(C)(C5N=C1C(C)(CCC(=O)NCC(C)OP(=O)([O-])O[C@H]1C(O)C(n6cnc7cc(C)c(C)cc76)O[C@@H]1CO)C5CC(N)=O)C(C)(CC(N)=O)C4CCC(N)=O)C(C)(CC(N)=O)C\\3CCC(N)=O)C(C)(C)C/2CCC(N)=O.[CH2-]C1OC(n2cnc3c(N)ncnc32)C(O)C1O.[Co]", "stereo": "some centres undefined", "condition": "ICS", "potency (µM)": "11.22", "curve as filed": "inhibitor, single point"}

From PubChem BioAssay record AID504749 (NCATS, 2011).